Measurements published in the supplement of paper PMC6411743.
± gives the standard deviation of the averaged measurements. The entries are a selection whose mix differs from that of the whole data set.

Sequences of proteins named here, by UniProt entry; tags and fusion partners are left off. A change or cut given only in a name is not applied to a line headed by its entry.
UniProt Q01968: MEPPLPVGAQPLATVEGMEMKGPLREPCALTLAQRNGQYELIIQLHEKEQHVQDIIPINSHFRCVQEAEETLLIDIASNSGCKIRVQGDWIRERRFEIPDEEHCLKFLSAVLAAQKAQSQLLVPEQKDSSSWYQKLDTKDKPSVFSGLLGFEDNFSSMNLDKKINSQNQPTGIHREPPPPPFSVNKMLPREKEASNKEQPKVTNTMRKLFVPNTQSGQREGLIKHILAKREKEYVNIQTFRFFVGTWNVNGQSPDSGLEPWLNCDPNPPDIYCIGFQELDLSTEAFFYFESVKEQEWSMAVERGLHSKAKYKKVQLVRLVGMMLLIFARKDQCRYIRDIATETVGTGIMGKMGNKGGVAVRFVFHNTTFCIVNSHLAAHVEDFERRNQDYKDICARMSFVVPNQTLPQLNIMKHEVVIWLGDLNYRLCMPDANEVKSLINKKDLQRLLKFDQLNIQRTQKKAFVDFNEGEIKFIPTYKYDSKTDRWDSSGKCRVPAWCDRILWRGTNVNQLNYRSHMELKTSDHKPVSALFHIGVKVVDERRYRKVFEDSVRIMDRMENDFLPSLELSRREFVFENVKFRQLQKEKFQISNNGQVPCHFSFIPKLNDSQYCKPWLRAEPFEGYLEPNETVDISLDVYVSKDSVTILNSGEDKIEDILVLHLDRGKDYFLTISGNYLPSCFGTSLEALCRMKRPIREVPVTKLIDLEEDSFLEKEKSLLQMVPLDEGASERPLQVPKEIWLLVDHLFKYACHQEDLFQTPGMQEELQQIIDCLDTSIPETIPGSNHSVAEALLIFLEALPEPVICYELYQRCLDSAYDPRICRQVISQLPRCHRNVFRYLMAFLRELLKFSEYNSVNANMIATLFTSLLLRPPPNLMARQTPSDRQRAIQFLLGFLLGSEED
UniProt Q04917: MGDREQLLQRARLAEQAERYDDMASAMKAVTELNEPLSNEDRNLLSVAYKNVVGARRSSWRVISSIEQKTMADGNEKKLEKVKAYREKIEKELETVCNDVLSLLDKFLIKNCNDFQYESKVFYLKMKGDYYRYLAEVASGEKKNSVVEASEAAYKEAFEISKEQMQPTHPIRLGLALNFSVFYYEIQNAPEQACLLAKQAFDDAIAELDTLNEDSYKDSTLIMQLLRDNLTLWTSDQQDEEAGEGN
UniProt Q01105, whole entry: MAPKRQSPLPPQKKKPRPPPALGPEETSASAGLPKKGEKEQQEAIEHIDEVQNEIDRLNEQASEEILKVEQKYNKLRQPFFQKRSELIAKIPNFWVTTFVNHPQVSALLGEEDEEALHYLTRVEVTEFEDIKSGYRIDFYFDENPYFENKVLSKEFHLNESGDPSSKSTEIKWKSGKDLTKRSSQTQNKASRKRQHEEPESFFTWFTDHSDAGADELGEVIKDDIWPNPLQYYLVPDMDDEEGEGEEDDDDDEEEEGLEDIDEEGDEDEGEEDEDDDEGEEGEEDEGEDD
UniProt Q02086: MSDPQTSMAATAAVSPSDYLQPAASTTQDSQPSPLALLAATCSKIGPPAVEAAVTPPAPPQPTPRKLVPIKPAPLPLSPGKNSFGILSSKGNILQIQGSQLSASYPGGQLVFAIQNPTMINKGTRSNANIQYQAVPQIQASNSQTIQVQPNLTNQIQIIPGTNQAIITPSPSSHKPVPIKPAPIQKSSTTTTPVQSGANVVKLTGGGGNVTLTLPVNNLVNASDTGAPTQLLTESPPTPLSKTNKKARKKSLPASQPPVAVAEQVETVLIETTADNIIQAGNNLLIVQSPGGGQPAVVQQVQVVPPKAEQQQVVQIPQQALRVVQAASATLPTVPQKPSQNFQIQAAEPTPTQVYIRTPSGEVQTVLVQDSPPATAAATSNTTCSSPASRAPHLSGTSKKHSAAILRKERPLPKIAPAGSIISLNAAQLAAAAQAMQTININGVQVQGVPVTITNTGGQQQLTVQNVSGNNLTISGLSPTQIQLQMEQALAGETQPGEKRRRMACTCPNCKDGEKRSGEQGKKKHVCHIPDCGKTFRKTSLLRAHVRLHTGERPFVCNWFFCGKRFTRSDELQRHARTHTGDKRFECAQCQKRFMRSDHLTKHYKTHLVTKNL
UniProt P61019: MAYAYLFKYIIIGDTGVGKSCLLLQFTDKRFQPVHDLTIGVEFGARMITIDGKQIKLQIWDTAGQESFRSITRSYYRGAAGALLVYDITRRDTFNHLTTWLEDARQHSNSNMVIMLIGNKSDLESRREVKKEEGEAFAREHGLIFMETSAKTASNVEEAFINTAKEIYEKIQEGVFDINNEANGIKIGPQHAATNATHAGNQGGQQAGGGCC
UniProt P61968: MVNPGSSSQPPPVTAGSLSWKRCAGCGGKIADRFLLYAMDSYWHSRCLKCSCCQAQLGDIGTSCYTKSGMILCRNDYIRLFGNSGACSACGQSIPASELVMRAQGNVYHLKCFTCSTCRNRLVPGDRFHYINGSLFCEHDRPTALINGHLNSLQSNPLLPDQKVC
UniProt P62253: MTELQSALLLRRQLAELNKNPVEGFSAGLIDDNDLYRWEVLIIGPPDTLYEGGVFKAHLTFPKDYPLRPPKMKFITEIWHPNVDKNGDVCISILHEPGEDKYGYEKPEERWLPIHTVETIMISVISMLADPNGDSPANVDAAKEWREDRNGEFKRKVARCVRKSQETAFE
UniProt Q00403, whole entry: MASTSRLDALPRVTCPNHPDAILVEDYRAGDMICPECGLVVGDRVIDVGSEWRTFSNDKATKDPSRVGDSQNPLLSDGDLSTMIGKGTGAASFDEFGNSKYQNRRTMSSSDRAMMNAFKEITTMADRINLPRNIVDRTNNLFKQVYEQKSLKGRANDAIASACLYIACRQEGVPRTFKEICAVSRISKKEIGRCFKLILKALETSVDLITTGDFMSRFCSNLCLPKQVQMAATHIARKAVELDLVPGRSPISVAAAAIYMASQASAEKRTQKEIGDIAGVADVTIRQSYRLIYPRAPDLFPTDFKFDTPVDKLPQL
UniProt P61024, whole entry: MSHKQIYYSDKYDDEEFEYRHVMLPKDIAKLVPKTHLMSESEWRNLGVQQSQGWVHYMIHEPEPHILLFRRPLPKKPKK
UniProt P63010: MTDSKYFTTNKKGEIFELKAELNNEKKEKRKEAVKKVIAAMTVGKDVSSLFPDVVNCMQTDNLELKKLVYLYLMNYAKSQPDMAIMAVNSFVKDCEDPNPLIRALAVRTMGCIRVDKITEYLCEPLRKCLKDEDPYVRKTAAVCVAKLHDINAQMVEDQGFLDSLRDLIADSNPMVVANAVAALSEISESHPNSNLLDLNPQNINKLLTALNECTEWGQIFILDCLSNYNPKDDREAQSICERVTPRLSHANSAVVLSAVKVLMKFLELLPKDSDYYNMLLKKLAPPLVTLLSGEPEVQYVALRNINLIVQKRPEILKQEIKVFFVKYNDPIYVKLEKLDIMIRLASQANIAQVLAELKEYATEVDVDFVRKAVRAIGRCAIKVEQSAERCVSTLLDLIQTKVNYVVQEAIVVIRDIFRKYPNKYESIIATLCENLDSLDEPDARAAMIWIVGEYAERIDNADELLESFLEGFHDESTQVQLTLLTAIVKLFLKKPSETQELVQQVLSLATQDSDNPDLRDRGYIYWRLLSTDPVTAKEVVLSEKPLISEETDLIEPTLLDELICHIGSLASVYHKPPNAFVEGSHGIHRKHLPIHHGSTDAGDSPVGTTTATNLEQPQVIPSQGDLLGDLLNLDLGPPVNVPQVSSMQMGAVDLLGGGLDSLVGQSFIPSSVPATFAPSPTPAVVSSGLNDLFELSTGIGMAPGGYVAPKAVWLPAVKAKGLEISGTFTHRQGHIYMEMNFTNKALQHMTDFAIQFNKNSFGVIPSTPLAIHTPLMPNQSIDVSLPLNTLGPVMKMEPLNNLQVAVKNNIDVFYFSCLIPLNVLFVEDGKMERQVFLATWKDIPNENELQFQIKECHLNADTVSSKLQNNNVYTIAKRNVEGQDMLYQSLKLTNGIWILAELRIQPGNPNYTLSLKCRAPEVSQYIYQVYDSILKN
UniProt P61026: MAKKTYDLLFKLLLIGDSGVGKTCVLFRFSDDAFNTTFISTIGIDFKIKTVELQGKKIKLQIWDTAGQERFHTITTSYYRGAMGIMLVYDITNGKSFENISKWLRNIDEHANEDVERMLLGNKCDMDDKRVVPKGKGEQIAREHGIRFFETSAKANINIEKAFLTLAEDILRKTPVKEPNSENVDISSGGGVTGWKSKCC
UniProt P60520, whole entry: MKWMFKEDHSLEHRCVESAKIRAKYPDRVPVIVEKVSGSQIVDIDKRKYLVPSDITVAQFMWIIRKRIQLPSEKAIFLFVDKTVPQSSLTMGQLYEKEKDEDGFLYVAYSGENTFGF
UniProt P98179: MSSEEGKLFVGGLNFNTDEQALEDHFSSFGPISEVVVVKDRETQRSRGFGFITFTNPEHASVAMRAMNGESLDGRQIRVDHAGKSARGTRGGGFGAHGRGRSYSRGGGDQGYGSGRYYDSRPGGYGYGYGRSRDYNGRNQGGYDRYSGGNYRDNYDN
UniProt P60174, whole entry: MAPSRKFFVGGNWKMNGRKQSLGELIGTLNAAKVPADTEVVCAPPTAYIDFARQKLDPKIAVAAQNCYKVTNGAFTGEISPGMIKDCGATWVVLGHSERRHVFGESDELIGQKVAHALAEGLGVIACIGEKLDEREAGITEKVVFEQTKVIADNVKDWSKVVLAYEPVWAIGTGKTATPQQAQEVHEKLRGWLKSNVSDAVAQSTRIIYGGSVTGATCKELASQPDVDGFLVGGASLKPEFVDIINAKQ
UniProt P68371, whole entry: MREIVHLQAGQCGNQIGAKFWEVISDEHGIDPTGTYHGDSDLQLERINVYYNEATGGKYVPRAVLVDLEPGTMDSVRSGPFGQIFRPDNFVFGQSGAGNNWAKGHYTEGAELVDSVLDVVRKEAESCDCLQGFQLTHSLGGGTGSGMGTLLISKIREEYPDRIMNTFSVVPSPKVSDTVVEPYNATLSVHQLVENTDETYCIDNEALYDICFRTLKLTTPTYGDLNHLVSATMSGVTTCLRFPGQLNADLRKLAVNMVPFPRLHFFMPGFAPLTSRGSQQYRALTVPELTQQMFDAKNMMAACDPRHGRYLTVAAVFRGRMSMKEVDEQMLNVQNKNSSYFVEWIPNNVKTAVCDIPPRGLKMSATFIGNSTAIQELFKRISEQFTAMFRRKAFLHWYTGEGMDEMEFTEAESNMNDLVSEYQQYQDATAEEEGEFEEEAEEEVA
UniProt P62316, whole entry: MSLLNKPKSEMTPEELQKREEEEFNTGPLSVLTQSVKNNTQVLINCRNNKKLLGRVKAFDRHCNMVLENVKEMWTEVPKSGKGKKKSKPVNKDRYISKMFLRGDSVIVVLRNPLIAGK
UniProt P59190: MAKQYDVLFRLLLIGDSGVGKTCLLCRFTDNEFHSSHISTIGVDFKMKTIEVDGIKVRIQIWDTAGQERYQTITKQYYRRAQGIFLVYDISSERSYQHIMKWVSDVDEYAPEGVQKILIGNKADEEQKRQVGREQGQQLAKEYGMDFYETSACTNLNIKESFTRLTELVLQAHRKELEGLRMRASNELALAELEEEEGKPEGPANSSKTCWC
UniProt P86790: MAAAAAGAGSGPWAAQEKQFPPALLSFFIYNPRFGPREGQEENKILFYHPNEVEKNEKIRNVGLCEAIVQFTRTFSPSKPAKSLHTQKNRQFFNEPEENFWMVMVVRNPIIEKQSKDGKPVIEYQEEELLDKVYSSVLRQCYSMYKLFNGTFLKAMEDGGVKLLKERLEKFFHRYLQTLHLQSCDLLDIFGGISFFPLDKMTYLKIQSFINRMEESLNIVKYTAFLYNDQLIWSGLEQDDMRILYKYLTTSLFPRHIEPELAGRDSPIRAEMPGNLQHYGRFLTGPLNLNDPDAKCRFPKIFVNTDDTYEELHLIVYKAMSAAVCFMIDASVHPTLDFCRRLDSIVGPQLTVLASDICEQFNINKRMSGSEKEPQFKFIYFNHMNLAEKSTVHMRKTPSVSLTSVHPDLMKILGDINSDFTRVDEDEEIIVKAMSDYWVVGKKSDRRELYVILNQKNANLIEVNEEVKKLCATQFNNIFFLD
UniProt Q07666, whole entry: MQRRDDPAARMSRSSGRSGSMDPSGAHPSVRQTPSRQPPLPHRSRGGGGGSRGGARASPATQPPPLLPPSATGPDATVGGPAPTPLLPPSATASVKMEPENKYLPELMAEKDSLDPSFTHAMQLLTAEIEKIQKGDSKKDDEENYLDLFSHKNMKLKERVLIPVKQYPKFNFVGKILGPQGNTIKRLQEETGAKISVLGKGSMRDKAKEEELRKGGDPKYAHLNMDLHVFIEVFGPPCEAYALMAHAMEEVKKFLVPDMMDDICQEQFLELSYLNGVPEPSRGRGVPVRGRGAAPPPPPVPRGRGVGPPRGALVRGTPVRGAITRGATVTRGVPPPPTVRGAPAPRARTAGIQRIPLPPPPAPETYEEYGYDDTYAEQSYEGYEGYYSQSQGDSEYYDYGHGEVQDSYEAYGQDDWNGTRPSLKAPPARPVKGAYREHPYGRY

Compound: Nc1ncnc2c1ncn2[C@@H]1O[C@H](COP(=O)(O)OP(=O)(O)NP(=O)(O)O)[C@@H](O)[C@H]1O [adenylyl imidodiphosphate]
Test: NP40-soluble protein abundance relative to vehicle (solubility fold change) (ratio); higher = more soluble protein in presence of AMP-PNP
Procedure, shortened: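 Across three independent experiments, values are fold changes against the detergent-processed vehicle for each replicate, based on vsn-normalised intensities. The samples were Jurkat crude lysate treated with eight concentrations (0.1 to 10 mM) for 10 min at room temperature and then 3 min at 37 °C. Lysate was solubilised with 0.8% NP40 and benzonase, ultracentrifuged, and the supernatant analysed by TMT-labelled LC-MS/MS.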

Target | NP40-soluble protein abundance (concentration: 1mM) | NP40-soluble protein abundance (concentration: 2mM) | NP40-soluble protein abundance (concentration: 4mM) | NP40-soluble protein abundance (concentration: 6mM) | NP40-soluble protein abundance (concentration: 8mM) | NP40-soluble protein abundance (concentration: 10mM)
KIF23 (UniProt Q02241) | 1.07 ± 0.069 | 1.03 ± 0.034 | 1.095 ± 0.0069 | 1.07 ± 0.035 | 1.05 ± 0.029 | 1.07 ± 0.043
UniProt Q01968 and related entries | 1.01 ± 0.044 | 0.968 ± 0.067 | 1.01 ± 0.075 | 0.994 ± 0.057 | 0.993 ± 0.062 | 0.989 ± 0.037
YWHAH (UniProt Q04917) | 1.01 ± 0.046 | 1.12 ± 0.17 | 1.01 ± 0.078 | 1.02 ± 0.075 | 1.01 ± 0.033 | 0.991 ± 0.11
UniProt Q01105-2 | 0.874 ± 0.16 | 1.03 ± 0.029 | 0.847 ± 0.2 | 0.885 ± 0.12 | 0.892 ± 0.083 | 0.875 ± 0.14
UniProt Q02086 and related entries | 1.02 ± 0.032 | 1.04 ± 0.067 | 1.04 ± 0.05 | 1.01 ± 0.047 | 1.04 ± 0.046 | 1.01 ± 0.022
RAB2A (UniProt P61019) | 1 ± 0.011 | 0.926 ± 0.11 | 0.957 ± 0.013 | 0.993 ± 0.041 | 1.01 ± 0.051 | 0.962 ± 0.053
UniProt Q08209 and related entries | 1.06 ± 0.025 | 1.04 ± 0.034 | 1.03 ± 0.033 | 0.999 ± 0.043 | 0.967 ± 0.034 | 0.986 ± 0.045
LMO4 (UniProt P61968) | 0.977 ± 0.034 | 1.03 ± 0.09 | 1 ± 0.058 | 1.06 ± 0.052 | 1.05 ± 0.039 | 1.08 ± 0.031
UniProt P62253 | 0.995 ± 0.021 | 0.982 ± 0.02 | 0.979 ± 0.01 | 0.956 ± 0.023 | 0.938 ± 0.014 | 0.924 ± 0.027
UniProt P62487 | 1.1 ± 0.072 | 1.14 ± 0.053 | 1.07 ± 0.03 | 1.07 ± 0.093 | 1.01 ± 0.053 | 1.09 ± 0.1
GTF2B (UniProt Q00403) | 0.954 ± 0.014 | 0.924 ± 0.071 | 0.958 ± 0.017 | 1.01 ± 0.013 | 0.994 ± 0.012 | 1 ± 0.025
DHX9 (UniProt Q08211) | 1.18 ± 0.066 | 1.14 ± 0.16 | 1.21 ± 0.12 | 1.23 ± 0.095 | 1.27 ± 0.11 | 1.25 ± 0.18
UniProt P61024 and related entries | 1.01 ± 0.052 | 0.991 ± 0.036 | 0.967 ± 0.071 | 0.943 ± 0.056 | 0.962 ± 0.041 | 0.938 ± 0.08
UniProt P63010 and related entries | 0.986 ± 0.029 | 0.957 ± 0.03 | 0.957 ± 0.034 | 1.04 ± 0.016 | 1.03 ± 0.036 | 1.02 ± 0.068
UniProt P61026 | 0.927 ± 0.039 | 0.888 ± 0.025 | 0.888 ± 0.019 | 0.986 ± 0.075 | 0.944 ± 0.065 | 0.962 ± 0.015
UniProt P62280 | 0.953 ± 0.064 | 0.906 ± 0.075 | 0.857 ± 0.13 | 0.844 ± 0.1 | 0.777 ± 0.083 | 0.821 ± 0.13
Q05GC8 and related entries (UniProt Q96PN7+Q05GC8) | 1.023 ± 0.0092 | 1.04 ± 0.033 | 0.9782 ± 0.0044 | 0.991 ± 0.014 | 0.971 ± 0.015 | 1.012 ± 0.0088
UniProt P60520 | 1 ± 0.038 | 0.951 ± 0.079 | 0.975 ± 0.054 | 1.01 ± 0.048 | 1.03 ± 0.031 | 1.02 ± 0.039
UniProt P62081 | 0.97 ± 0.043 | 0.945 ± 0.029 | 0.936 ± 0.099 | 0.943 ± 0.014 | 0.953 ± 0.08 | 0.977 ± 0.09
RBM3 (UniProt P98179) | 0.9777 ± 0.0027 | 0.994 ± 0.044 | 0.992 ± 0.021 | 0.985 ± 0.012 | 1.04 ± 0.022 | 1.03 ± 0.039
UniProt P60174 and related entries | 1.027 ± 0.01 | 1.02 ± 0.042 | 0.967 ± 0.05 | 1.006 ± 0.0073 | 0.969 ± 0.03 | 0.961 ± 0.036
UniProt P82094 and related entries | 1.04 ± 0.037 | 1.08 ± 0.046 | 1.03 ± 0.055 | 0.987 ± 0.037 | 0.98 ± 0.049 | 0.991 ± 0.054
UniProt P68371 | 1.13 ± 0.13 | 1.04 ± 0.037 | 1.1 ± 0.11 | 0.976 ± 0.023 | 1.05 ± 0.088 | 0.958 ± 0.078
UniProt P78362 and related entries | 0.958 ± 0.015 | 1.05 ± 0.078 | 1.05 ± 0.021 | 1.15 ± 0.06 | 1.17 ± 0.063 | 1.29 ± 0.13
UniProt P62316 | 0.981 ± 0.025 | 1.05 ± 0.084 | 1.02 ± 0.05 | 1.23 ± 0.14 | 1.25 ± 0.064 | 1.33 ± 0.13
UniProt P59190 | 0.994 ± 0.025 | 1.04 ± 0.12 | 0.98 ± 0.025 | 0.993 ± 0.033 | 1.02 ± 0.041 | 0.9965 ± 0.0069
P86790 and related entries (UniProt P86791+P86790) | 0.998 ± 0.019 | 0.936 ± 0.053 | 0.991 ± 0.042 | 0.94 ± 0.037 | 0.9407 ± 0.0085 | 0.911 ± 0.016
UniProt Q05086 and related entries | 0.968 ± 0.016 | 0.94 ± 0.035 | 0.939 ± 0.0097 | 0.967 ± 0.013 | 0.97 ± 0.017 | 0.941 ± 0.019
PPAT (UniProt Q06203) | 0.923 ± 0.054 | 0.817 ± 0.11 | 0.916 ± 0.03 | 0.921 ± 0.063 | 0.956 ± 0.043 | 0.906 ± 0.074
KHDRBS1 (UniProt Q07666) | 1.07 ± 0.037 | 1.16 ± 0.074 | 1.1 ± 0.03 | 1.13 ± 0.061 | 1.14 ± 0.073 | 1.16 ± 0.025

Rewritten as comma-separated lines: part of the list above.
Target,NP40-soluble protein abundance (concentration: 1mM),NP40-soluble protein abundance (concentration: 2mM),NP40-soluble protein abundance (concentration: 4mM),NP40-soluble protein abundance (concentration: 6mM),NP40-soluble protein abundance (concentration: 8mM),NP40-soluble protein abundance (concentration: 10mM)
UniProt P61026,0.927 ± 0.039,0.888 ± 0.025,0.888 ± 0.019,0.986 ± 0.075,0.944 ± 0.065,0.962 ± 0.015
UniProt P62280,0.953 ± 0.064,0.906 ± 0.075,0.857 ± 0.13,0.844 ± 0.1,0.777 ± 0.083,0.821 ± 0.13
